Results: the supplement of paper PMC4604168 (melanoma cell lines)
The other results are listed elsewhere or left out. Single values are uncertain, as repeats are few or missing.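 Cells were imaged in 1,536-well plates, and nuclei stained with an antibody against cleaved PARP were counted against all DNA-stained nuclei to give the apoptosis fraction. Screening doses were chosen to leave most cells alive, and resting and induced cleaved-PARP levels differ strongly between cell lines.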

Columns and labels:
Assay in all cases: cleaved PARP positive nuclei fraction relative to DMSO control; melanoma cells; higher = more apoptosis
Details in all cases: library dose: low library concentration; 72 h
[1] = tested on: MZ2-MEL
[2] = tested on: MeWo
[3] = tested on: RPMI7951
[4] = tested on: RVH-421
[5] = tested on: SkMel28
[6] = tested on: SkMel2
[7] = tested on: SkMel30
[8] = tested on: SkMel5
[9] = tested on: UACC257
[10] = tested on: UACC62
[11] = tested on: WM115
[12] = tested on: WM1716
[13] = tested on: WM1745
[14] = tested on: WM3526
[15] = tested on: WM3619
[16] = tested on: WM451Lu

SMILES	cleaved PARP positive nuclei fraction [1] [%]	cleaved PARP positive nuclei fraction [2] [%]	cleaved PARP positive nuclei fraction [3] [%]	cleaved PARP positive nuclei fraction [4] [%]	cleaved PARP positive nuclei fraction [5] [%]	cleaved PARP positive nuclei fraction [6] [%]	cleaved PARP positive nuclei fraction [7] [%]	cleaved PARP positive nuclei fraction [8] [%]	cleaved PARP positive nuclei fraction [9] [%]	cleaved PARP positive nuclei fraction [10] [%]	cleaved PARP positive nuclei fraction [11] [%]	cleaved PARP positive nuclei fraction [12] [%]	cleaved PARP positive nuclei fraction [13] [%]	cleaved PARP positive nuclei fraction [14] [%]	cleaved PARP positive nuclei fraction [15] [%]	cleaved PARP positive nuclei fraction [16] [%]
CCCS(=O)(=O)Nc1ccc(F)c(C(=O)c2c[nH]c3ncc(Cl)cc23)c1F + CCCCCCCCCCCC1=C(O)C(=O)C=C(O)C1=O [Embelin] (first compound 0.08 µM, partner dose 1.2 µM)	151	130	132	141	48.4	63.2	26.5	62.7	86.6	638	140	47.5	90.8	92.1	237	79.1
Nc1ncn([C@H]2C[C@H](O)[C@@H](CO)O2)c(=O)n1 [decitabine] + C=CCn1c(=O)c2cnc(Nc3ccc(N4CCN(C)CC4)cc3)nc2n1-c1cccc(C(C)(C)O)n1 [MK1775] (first compound 0.1 µM, partner dose 0.02 µM)	56.4	55.6	273	96	72.5	79.7	65.5	75.6	41.2	104	56.1	143	98.9	60.8	124	70.3
Cn1c(=O)n(-c2ccc(C(C)(C)C#N)cc2)c2c3cc(-c4cnc5ccccc5c4)ccc3ncc21 + COC(=O)c1sccc1S(=O)(=O)Nc1ccc(Nc2ccccc2)cc1OC [GSK0660] (first compound 0.004 µM, partner dose 1 µM)	131	43.3	69.6	88.3	223	138	94.7	150	45.4	147	123	242	92.1	86.7	113	41.1
Cc1cc(Nc2cc(N3CCN(C)CC3)nc(/C=C/c3ccccc3)n2)n[nH]1 + COc1cc(N2CCC(N3CCN(C)CC3)CC2)ccc1Nc1ncc(Cl)c(Nc2ccccc2S(=O)(=O)C(C)C)n1 [NVP-TAE684] (first compound 0.04 µM, partner dose 0.08 µM)	28.3	73.5	146	89.6	87.8	163	87.8	188	327	28.8	85.3	264	111	108	97.8	160
Nc1ncn([C@H]2C[C@H](O)[C@@H](CO)O2)c(=O)n1 [decitabine] + Oc1nc(-c2ccc(C(F)(F)F)cc2)nc2c1CSCC2 [XAV939] (first compound 0.1 µM, partner dose 2 µM)	121	115	58.3	23.1	106	115	121	86.2	255	215	122	236	107	62.5	108	177
CN1CCN(c2ccc3nc(-c4c(N)c5c(F)cccc5[nH]c4=O)[nH]c3c2)CC1 [Dovitinib] + COc1cc2ncnc(Nc3ccc(Oc4ccccc4)cc3)c2cc1OC [SrcI1] (first compound 0.1 µM, partner dose 2 µM)	154	140	58.3	167	196	40.9	37.4	85.2	31.6	66.9	93.2	160	92.3	73.5	72.4	68.9
CNC(=O)c1cc(Oc2ccc(NC(=O)Nc3ccc(Cl)c(C(F)(F)F)c3)cc2)ccn1 [sorafenib] + CCCCCCCCCCCC1=C(O)C(=O)C=C(O)C1=O [Embelin] (first compound 0.4 µM, partner dose 1.2 µM)	148	61.6	312	135	106	131	88.2	70.9	94.1	74.4	65.2	110	95.2	162	93	105
CC(C)C[C@H](NC(=O)[C@H](Cc1ccccc1)NC(=O)c1cnccn1)B(O)O [Bortezomib] + COc1ccc(-c2ccc3c(N4CCOCC4)nc(N4C[C@@H](C)O[C@@H](C)C4)nc3n2)cc1CO [KU0063794] (first compound 0.001 µM, partner dose 0.02 µM)	314	187	116	131	181	66.8	337	169	316	207	112	573	156	85.2	1080	109
CC(C)C[C@H](NC(=O)[C@H](Cc1ccccc1)NC(=O)c1cnccn1)B(O)O [Bortezomib] + N#Cc1c(O)c2c(-c3ccc(-c4ccccc4O)cc3)csc2[nH]c1=O [A769662] (first compound 0.001 µM, partner dose 2 µM)	119	67.6	43.7	769	213	123	45.7	309	118	108	51.2	659	154	83.7	307	110

Look-ups from the results shown:
CNC(=O)c1cc(Oc2ccc(NC(=O)Nc3ccc(Cl)c(C(F)(F)F)c3)cc2)ccn1 [sorafenib] + CCCCCCCCCCCC1=C(O)C(=O)C=C(O)C1=O [Embelin] (first compound 0.4 µM, partner dose 1.2 µM) | cleaved PARP positive nuclei fraction [6] [%]: 131
CCCS(=O)(=O)Nc1ccc(F)c(C(=O)c2c[nH]c3ncc(Cl)cc23)c1F + CCCCCCCCCCCC1=C(O)C(=O)C=C(O)C1=O [Embelin] (first compound 0.08 µM, partner dose 1.2 µM) | cleaved PARP positive nuclei fraction [12] [%]: 47.5
